Data: paper PMC11051623
Results are given in words; binding and its absence hold for the method and conditions named. In cells and extracts the contact can be indirect. Some binding calls cover weakened binding; strength is not graded here.

Sequences of proteins named here, by UniProt entry; tags and fusion partners are left off.
UniProt F5H9W9: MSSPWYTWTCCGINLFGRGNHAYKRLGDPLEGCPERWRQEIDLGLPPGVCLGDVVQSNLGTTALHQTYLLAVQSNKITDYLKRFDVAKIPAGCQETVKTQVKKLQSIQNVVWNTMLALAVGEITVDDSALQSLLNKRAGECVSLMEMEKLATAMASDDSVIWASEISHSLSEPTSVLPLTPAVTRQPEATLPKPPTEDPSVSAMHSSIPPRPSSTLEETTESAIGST
UniProt F5HAI6: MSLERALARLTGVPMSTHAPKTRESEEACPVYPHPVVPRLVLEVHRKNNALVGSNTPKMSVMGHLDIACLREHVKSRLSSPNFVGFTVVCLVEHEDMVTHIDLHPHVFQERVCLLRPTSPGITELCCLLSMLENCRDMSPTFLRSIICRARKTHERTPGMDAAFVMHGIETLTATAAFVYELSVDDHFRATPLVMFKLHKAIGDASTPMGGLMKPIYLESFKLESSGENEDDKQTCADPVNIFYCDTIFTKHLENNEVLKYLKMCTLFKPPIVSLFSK

Target: KSHV pORF55, wild type (FLAG-ORF55-GFP) (Kaposi's sarcoma-associated herpesvirus (KSHV)) (UniProt F5H9W9)
Assay: co-IP; HEK293T cells co-transfected with HA-ORF42 and FLAG-ORF55-GFP or the mutants, lysed 24 h after transfection in 150 mM NaCl, 50 mM Tris-HCl pH 7.4, 1% Triton X-100, 1 mM EDTA; precipitated with anti-FLAG beads at 4°C for 4 h; immunoblotting

KSHV pORF42 (HA-ORF42) (from UniProt F5HAI6 1-278)
binding: binds
